Measurements reported in PubChem BioAssay AID504764 (Drosophila RNAi Screening Center, 2011)
Aim: 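Knock-downs that raise or lower a Notch target reporter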 (primary screen). Cell system: Drosophila Kc167 cells. Reagents: long dsRNA against Drosophila genes. Duration: about 5 days (4 days dsRNA, then 24 h after transfection). Challenge: transfection of constitutively active membrane-tethered Notch lacking the extracellular domain, read 24 h later. Read-out: 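Firefly luciferase from an E(spl)m3 reporter with active Notch, plus control-promoter and uninduced reporter wells for normalisation; unnormalised counts, duplicate wells a and b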. Scale: induced reporter light, run 1, well a and induced reporter light, run 1, well b: higher = more light from the Notch target reporter with active Notch; control promoter light, run 1, well a and control promoter light, run 1, well b: higher = more light from the viral control promoter (cell number, transfection, viability); uninduced reporter light, run 1, well a: higher = more light from the Notch target reporter without active Notch. Call rule: 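Hit if the duplicate-averaged log2 ratio of induced to control-promoter light gives a plate-wise z beyond ±2, or induced to uninduced beyond ±1.8; weak-control or discordant-duplicate wells dropped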. Calls: active = modifier hit (raised or lowered Notch signal); inactive = not a hit.
The deposit covers about 22,000 reagents; below is an unselected part of those that have a named target and a result. In the full data, 403 (1.9%) got an active call. 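Unnormalised raw counts per well; ratio z-scores behind the hit calls and whether each hit raises or lowers signal are not deposited.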 Not given: the amount of reagent.

| predicted target | dsRNA | induced reporter light, run 1, well a | induced reporter light, run 1, well b | control promoter light, run 1, well a | control promoter light, run 1, well b | uninduced reporter light, run 1, well a | Call |
| --- | --- | --- | --- | --- | --- | --- | --- |
| CG12608 | DRSC19472 | 1.89e5 | 2.10e5 | 2.71e5 | 2.68e5 | 13385 | inactive |
| CG3942 | DRSC15525 | 61290 | 66425 | 49550 | 50365 | 3915 | inactive |
| CG16863 | DRSC01892 | 1.07e5 | 1.30e5 | 1.38e5 | 1.35e5 | 9855 | inactive |
| Targ1 (Terminal ADP-ribose protein glycohydrolase 1) | DRSC11616 | 1.15e5 | 1.10e5 | 1.37e5 | 1.21e5 | 6555 | inactive |
| IPIP (Inositol phosphatase interacting protein) | DRSC02164 | 89295 | 1.02e5 | 1.00e5 | 84925 | 6930 | inactive |
| Mipp1 (Multiple inositol polyphosphate phosphatase 1) | DRSC11223 | 1.29e5 | 1.18e5 | 80500 | 1.15e5 | 9390 | inactive |
| Ero1L (Endoplasmic reticulum oxidoreductin-1-like) | DRSC08660 | 1.11e5 | 1.55e5 | 91595 | 31475 | 12750 | inactive |
| bsh (brain-specific homeobox) | DRSC03498 | 1.80e5 | 1.45e5 | 2.28e5 | 2.16e5 | 11235 | inactive |
| pHCl-1 (pH-sensitive chloride channel 1) | DRSC09401 | 1.99e5 | 1.70e5 | 3.05e5 | 3.03e5 | 18410 | inactive |
| pHCl-1 (pH-sensitive chloride channel 1) | DRSC09991 | 1.97e5 | 1.62e5 | 1.99e5 | 1.85e5 | 6600 | inactive |
| pHCl-1 (pH-sensitive chloride channel 1) | DRSC10589 | 1.78e5 | 1.89e5 | 2.26e5 | 1.92e5 | 8138 | inactive |
| CG12991 | DRSC19511 | 98895 | 86015 | 1.13e5 | 89500 | 12680 | inactive |
| S6k (Ribosomal protein S6 kinase) | DRSC11276 | 2.42e5 | 2.79e5 | 3.06e5 | 2.92e5 | 11510 | inactive |
| CG2150 | DRSC15420 | 1.86e5 | 1.80e5 | 2.51e5 | 3.05e5 | 11550 | inactive |
| CG15435 | DRSC00450 | 1.26e5 | 88735 | 1.10e5 | 1.05e5 | 8645 | inactive |
| CG32066 | DRSC10652 | 1.05e5 | 92615 | 74380 | 29105 | 10160 | inactive |
| CG32066 | DRSC10653 | 1.95e5 | 1.57e5 | 2.42e5 | 2.23e5 | 8765 | inactive |
| vg (vestigial) | DRSC07715 | 1.68e5 | 1.63e5 | 1.85e5 | 1.65e5 | 12055 | active |
| CG16727 | DRSC15139 | 2.33e5 | 1.87e5 | 2.10e5 | 1.92e5 | 11275 | active |
| CG4956 | DRSC15683 | 1.62e5 | 1.73e5 | 1.66e5 | 2.09e5 | 13938 | inactive |
| gprs | DRSC06761 | 1.81e5 | 87025 | 97355 | 1.17e5 | 12410 | inactive |
| CG9926 | DRSC16582 | 1.19e5 | 1.03e5 | 1.01e5 | 81580 | 9720 | inactive |
| CG17287 | DRSC06659 | 67720 | 88160 | 1.06e5 | 98940 | 8555 | inactive |
| pcm (pacman) | DRSC20361 | 1.32e5 | 1.25e5 | 97945 | 69425 | 8090 | inactive |
| Antp (Antennapedia) | DRSC12490 | 15910 | 18260 | 12470 | 10885 | 4845 | inactive |
| CG3223 | DRSC15468 | 96040 | 96525 | 81525 | 67595 | 7925 | inactive |
| CG1896 | DRSC15397 | 1.80e5 | 1.89e5 | 2.45e5 | 2.23e5 | 13150 | inactive |
| CG9737 | DRSC16550 | 1.63e5 | 1.36e5 | 1.79e5 | 1.75e5 | 11955 | inactive |
| unc-13 | DRSC17192 | 60580 | 63820 | 83905 | 90570 | 5665 | inactive |
| unc-13 | DRSC17193 | 65300 | 60105 | 92185 | 87415 | 4845 | inactive |
| unc-13 | DRSC17223 | 1.78e5 | 1.60e5 | 2.19e5 | 2.02e5 | 14470 | inactive |
| kek5 (kekkon 5) | DRSC19438 | 1.00e5 | 1.05e5 | 85645 | 1.06e5 | 14655 | inactive |
| sif (still life) | DRSC08759 | 1.57e5 | 1.89e5 | 1.19e5 | 1.19e5 | 12645 | inactive |
| sif (still life) | DRSC11395 | 3.27e5 | 3.69e5 | 3.55e5 | 2.74e5 | 16350 | inactive |

Targets above whose target name starts with U or u (3):
| predicted target | dsRNA | induced reporter light, run 1, well a | induced reporter light, run 1, well b | control promoter light, run 1, well a | control promoter light, run 1, well b | uninduced reporter light, run 1, well a | Call |
| --- | --- | --- | --- | --- | --- | --- | --- |
| unc-13 | DRSC17192 | 60580 | 63820 | 83905 | 90570 | 5665 | inactive |
| unc-13 | DRSC17193 | 65300 | 60105 | 92185 | 87415 | 4845 | inactive |
| unc-13 | DRSC17223 | 1.78e5 | 1.60e5 | 2.19e5 | 2.02e5 | 14470 | inactive |
